Chains of the proteins cited; added tags and fusions are not shown.
UniProt Q812A2: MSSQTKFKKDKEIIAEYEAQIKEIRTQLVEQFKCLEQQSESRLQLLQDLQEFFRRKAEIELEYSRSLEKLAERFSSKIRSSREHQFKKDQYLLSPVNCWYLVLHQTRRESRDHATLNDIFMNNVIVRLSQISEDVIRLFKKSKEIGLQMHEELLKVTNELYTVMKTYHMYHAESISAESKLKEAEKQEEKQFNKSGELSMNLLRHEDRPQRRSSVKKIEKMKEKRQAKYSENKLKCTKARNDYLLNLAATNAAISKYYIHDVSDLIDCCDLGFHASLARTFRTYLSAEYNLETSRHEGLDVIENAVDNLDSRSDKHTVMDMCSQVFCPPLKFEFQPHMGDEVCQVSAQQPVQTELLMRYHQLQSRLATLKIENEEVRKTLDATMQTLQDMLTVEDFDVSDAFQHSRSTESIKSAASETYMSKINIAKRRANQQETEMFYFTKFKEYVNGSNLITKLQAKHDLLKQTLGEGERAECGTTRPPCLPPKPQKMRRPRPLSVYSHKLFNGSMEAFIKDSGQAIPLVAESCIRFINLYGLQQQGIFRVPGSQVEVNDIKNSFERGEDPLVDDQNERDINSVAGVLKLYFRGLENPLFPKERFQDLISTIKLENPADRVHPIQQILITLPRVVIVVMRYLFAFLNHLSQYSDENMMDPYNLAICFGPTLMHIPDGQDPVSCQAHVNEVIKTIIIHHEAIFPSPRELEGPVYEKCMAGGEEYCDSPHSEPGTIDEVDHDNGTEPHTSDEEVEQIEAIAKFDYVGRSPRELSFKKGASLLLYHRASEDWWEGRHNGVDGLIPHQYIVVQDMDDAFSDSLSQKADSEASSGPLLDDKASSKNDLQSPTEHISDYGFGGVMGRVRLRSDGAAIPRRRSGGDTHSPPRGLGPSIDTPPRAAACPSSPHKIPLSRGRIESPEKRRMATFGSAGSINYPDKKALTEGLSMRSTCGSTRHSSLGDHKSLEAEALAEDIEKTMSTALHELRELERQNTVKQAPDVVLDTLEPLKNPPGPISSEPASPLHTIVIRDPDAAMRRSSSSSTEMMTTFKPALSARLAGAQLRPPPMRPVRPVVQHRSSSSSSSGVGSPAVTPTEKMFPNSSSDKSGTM
UniProt Q8R4H2: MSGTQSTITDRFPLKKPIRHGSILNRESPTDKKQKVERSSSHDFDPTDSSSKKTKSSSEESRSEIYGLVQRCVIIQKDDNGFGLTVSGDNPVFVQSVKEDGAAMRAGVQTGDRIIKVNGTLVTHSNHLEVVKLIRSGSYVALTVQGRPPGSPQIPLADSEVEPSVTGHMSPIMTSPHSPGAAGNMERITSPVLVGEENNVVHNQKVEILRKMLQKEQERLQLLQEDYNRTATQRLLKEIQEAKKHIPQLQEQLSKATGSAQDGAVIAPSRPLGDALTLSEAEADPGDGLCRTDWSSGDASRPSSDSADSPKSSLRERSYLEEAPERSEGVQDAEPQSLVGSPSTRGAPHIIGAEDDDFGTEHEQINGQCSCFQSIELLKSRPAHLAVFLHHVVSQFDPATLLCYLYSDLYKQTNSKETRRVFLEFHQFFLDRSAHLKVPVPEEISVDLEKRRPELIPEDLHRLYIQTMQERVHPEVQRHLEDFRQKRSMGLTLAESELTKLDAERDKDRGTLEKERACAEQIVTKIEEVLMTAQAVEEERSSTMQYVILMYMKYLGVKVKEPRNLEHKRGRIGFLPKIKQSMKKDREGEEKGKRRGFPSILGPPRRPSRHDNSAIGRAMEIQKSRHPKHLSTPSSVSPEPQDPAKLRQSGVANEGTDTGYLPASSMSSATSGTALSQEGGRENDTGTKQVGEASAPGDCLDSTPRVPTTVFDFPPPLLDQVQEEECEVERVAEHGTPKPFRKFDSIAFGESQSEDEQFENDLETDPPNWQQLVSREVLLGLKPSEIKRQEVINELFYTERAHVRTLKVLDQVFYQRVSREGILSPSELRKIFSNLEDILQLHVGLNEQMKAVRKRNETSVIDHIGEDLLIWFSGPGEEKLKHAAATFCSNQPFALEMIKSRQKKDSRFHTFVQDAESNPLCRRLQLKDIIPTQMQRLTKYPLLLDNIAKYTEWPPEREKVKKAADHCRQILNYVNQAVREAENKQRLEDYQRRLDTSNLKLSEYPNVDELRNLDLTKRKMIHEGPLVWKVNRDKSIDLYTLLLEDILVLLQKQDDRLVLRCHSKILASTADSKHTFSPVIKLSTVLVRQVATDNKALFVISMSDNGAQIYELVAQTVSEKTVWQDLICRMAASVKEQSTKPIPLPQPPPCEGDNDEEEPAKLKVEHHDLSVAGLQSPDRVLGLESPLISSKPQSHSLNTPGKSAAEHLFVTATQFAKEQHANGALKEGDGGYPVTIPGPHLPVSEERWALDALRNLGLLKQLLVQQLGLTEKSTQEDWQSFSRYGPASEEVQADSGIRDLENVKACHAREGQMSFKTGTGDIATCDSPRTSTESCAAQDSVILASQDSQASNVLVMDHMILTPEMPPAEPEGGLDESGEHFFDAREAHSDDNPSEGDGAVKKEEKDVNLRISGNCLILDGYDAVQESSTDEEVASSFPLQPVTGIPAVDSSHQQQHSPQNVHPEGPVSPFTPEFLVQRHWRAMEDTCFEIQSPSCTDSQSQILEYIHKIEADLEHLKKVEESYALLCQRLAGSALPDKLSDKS
UniProt Q3UU96: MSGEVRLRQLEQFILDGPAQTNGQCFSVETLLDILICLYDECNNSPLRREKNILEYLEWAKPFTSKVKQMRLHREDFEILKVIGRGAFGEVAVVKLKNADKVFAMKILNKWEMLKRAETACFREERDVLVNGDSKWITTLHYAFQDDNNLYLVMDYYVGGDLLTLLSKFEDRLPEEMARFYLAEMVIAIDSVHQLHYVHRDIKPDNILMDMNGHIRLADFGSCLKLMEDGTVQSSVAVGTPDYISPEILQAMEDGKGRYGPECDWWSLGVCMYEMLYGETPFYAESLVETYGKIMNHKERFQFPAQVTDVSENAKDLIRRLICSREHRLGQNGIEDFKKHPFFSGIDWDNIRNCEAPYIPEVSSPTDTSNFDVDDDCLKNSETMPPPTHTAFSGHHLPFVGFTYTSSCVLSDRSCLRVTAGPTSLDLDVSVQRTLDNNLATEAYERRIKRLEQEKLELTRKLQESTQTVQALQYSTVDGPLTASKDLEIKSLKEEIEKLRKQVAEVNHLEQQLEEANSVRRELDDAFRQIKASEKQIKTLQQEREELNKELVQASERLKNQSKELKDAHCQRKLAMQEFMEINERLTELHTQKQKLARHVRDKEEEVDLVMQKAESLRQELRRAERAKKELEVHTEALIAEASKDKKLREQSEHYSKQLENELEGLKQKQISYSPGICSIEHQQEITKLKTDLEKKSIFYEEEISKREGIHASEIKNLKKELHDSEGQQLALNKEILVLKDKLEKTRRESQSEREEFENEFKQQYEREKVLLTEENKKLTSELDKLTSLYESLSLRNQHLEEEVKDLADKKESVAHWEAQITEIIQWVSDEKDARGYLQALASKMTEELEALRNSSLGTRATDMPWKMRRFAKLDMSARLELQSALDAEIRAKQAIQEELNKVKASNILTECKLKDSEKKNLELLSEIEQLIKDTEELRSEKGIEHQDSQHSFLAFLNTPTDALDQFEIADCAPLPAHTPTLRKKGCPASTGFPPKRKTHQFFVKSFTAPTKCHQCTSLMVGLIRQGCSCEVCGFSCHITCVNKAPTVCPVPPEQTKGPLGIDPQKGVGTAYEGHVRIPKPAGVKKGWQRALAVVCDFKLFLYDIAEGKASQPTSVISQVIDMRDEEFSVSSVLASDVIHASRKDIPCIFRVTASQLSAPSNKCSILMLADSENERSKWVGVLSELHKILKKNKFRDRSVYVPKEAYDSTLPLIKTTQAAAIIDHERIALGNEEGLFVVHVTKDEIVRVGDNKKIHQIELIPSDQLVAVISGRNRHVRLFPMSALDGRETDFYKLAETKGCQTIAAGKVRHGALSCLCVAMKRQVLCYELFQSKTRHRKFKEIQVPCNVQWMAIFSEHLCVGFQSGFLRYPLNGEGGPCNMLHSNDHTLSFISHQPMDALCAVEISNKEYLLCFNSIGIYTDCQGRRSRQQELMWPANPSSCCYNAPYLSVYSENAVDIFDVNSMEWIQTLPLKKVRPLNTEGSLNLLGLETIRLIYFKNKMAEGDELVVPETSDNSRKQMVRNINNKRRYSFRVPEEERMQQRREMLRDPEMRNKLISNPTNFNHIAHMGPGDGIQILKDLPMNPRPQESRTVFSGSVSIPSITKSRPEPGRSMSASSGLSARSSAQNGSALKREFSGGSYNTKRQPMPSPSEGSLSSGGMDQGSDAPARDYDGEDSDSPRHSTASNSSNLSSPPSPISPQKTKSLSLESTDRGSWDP

According to paper PMC6926483:

B1: SRCIN1 (p140cap) (protein, UniProt Q9QWI6 1-1250)
chain: MQPWQCLRRFALAWWERTAEGRARSPREEVGPRDPGGRGEPDPERSSPPMLSADDAEYPREYRTLGGGGGGGSGGRRFSNVGLVHTSERRHTVIAAQSLEALSGLQKADADRKRDAFMDHLKSKYPQHALALRGQQDRMREQVGGWTVDPVCLLSSLCSHLHGDSTPSGAGQPAQQPNYWSFKTRSSRHTQGAQPGLADQAAKLSYASAESLETMSEAELPLGFSRMNRFRQSLPLSRSASQTKLRSPGVLFLQFGEETRRVHITHEVSSLDTLHALIAHMFPQKLTMGMLKSPNTAILIKDEARNVFYELEDVRDIQDRSIIKIYRKEPLYAAFPGSHLTNGDLRREMVYASRESSPTRRLNNLSPASHLASSSPPPGLPSGLPSGLPSGSPSRSRLSYAGGRPPSYAGSPVHHAAERLGGAPTGQGVSPSPSAILERRDVKPDEDLAGKAGGMVLVKGEGLYADPYGLLHEGRLSLAAAAETHSHTRARAACTSGVPCALSAPTPLPRCSPTWRTRCTRRALAALYGDGYGFRLPPSSPQKLADVSAPSGGPPPPHSPYSGPPSRGSPVRQSFRKDSGSSSVFAESPGGKARSTGSASTAGAPPSELFPGPGERSLVGFGPPVPAKDTETRERMEAMEKQIASLTGLVQSALLRGSEPETPSEKVEGSNGAATPSAPVCGSGSKSSGATPVSGPPPPSASSTPAGQPTAVSRLQMQLHLRGLQNSASDLRGQLQQLRNVQLQNQESVRALLKPTEADVSMRVSEAARRQEDPLQRQRTLVEEERLRYLNDEELITQQLNDLEKSVEKIQRDVAHNHRLMPGPELEEKALVLKQLGETLTELKAHFPGLQSKMRVVLRVEVEAVKFLKEEPQRLDGLLKRCRGVTDTLAQIRRQVDEGMWPPPNNLLNQSPKKVAAETDFSKGLDFEIPPPSPPLNLHELSGPAEGTPLTPKSTNPTKCLDASSKRNTDKAVSVEAAERDWEEKRAALTQYSAKDINRLLEETQAELLKAIPDLDCASKTHPGPAPTPDHKPPKAPHGQKAAPRTEPSGRRGSDELTVPRYRTEKPSKSPPPPPPRRSFPSSHGLTTTRTGEVVVTSKKDSVFIKKAESEELEVQKPQVKLRRAVSEVVRPASTPPIMASAIKDEDDEERIIAELESGGSSVPPMKVVTPGASRLKAAQGPAGSPDKGKHGKQRTEYMRIQAQQQATKPSKEVSGPNETSSPGSEKPSGSRTSIPVLTSFGARNSSISF
B2: protein phosphatase 1 regulatory subunit 12A (PPP1R12A) (protein, UniProt Q9DBR7 1-1029)
chain: MKMADAKQKRNEQLKRWIGSETDLEPPVVKRQKTKVKFDDGAVFLAACSSGDTDEVLKLLHRGADINYANVDGLTALHQACIDDNVDMVKFLVENGANINQPDNEGWIPLHAAASCGYLDIAEFLIGQGAHVGAVNSEGDTPLDIAEEEAMEELLQNEVNRQGVDIEAARKEEERVMLRDARQWLNSGHISDVRHAKSGGTALHVAAAKGYTEVLKLLIQAGYDVNIKDYDGWTPLHAAAHWGKEEACRILVDNLCDMETVNKVGQTAFDVADEDILGYLEELQKKQTLLHSEKRDKKSPLIESTANMENNQPQKAFKNKETLIIEPEKNASRIESLEHEKADEEEEGKKDESSCSSEEDEEDDSESEAETDKTKPMASVSNAHTSSTQAAPAAVTAPTLSSNQGTPTSPVKKFPISTTKISPKEEERKDESPASWRLGLRKTGSYGALAEISASKEAQKEKDTAGVMRSASSPRLSSSLDNKEKEKDNKGTRLAYVTPTIPRRLASTSDIEEKENRESSSLRTSSSYTRRKWEDDLKKNSSINEGSTYHRSCSFGRRQDDLISCSVPSTTSTPTVTSAAGLQRSLPSSTSTAAKTPPGSSSAGTQSSTSNRLWAEDSTEKEKDSAPTAVTIPVAPTVVNAAAPSTTTLTTTTAGTVSEVRERRRSYLTPVRDEESESQRKARSRQARQSRRSTQGVTLTDLQEAEKTIGRSRSTRTREQENEEKEKEEKEKQDKEKQEEKKESEASREDEYKQKYSRTYDETYTRYRPVSTSSSSAPSSSSLSTLGSTLYASSQLNRPNSLVGITSAYSRGLAKENEREGEKKEEEKEGEDKSQPKSIRERRRPREKRRSTGVSFWTQDSDENEQERQSDTEDGSSKRETQTDSVSRYDSSSTSSSDRYDSLLGRSASYSYLEDRKPYSSRLEKDDSTDFKKLYEQILAENEKLKAQLHDTNMELTDLKLQLEKATQRQERFADRSQLEMEKRERRALERRISEMEEELKMLPDLKADNQRLKDENGALIRVISKLSK

molecular target: T1, glutamate receptor delta-1 (GluD1), endogenous (mouse (endogenous in P15 mouse brain)) (UniProt Q61627); experiment: affinity purification with mass spectrometry; synaptic membranes from P15 mouse brain (1% CHAPS, 20 mM HEPES pH 7.4, 150 mM NaCl, 5 mM EDTA, 5 mM EGTA); overnight at 4°C with rabbit anti-GluD1 cross-linked to protein G magnetic beads, total rabbit IgG as control; on-bead digestion, LC-MS/MS; three replicates
T1 sequence: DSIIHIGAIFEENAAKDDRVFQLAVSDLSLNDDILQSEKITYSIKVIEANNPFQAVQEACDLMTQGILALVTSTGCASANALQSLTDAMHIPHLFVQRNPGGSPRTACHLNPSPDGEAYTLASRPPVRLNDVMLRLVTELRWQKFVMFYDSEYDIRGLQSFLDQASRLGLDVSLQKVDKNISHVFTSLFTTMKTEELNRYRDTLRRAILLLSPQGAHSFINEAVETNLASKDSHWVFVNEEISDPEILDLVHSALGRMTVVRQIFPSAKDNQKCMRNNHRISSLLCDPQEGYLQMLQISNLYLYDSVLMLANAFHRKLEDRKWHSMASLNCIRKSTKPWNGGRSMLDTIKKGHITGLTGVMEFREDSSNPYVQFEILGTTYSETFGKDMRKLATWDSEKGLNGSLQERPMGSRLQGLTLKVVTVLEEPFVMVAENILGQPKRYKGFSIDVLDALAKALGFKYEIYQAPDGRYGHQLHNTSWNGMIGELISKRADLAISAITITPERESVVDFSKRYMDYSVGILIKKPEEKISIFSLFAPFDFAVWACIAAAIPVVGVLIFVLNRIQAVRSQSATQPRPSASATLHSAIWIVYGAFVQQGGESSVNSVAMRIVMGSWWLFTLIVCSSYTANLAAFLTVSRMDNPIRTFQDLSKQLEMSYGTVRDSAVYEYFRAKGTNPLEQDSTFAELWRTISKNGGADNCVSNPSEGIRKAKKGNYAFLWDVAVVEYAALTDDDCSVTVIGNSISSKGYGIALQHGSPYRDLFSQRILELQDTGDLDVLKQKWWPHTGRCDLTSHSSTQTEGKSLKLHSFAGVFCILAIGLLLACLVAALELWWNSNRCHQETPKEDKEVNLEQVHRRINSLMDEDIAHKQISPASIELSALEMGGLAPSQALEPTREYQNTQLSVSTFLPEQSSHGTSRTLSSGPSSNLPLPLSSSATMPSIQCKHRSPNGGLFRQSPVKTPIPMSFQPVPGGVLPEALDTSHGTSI

binding, binds:
Rho GTPase-activating protein 32 (ARHGAP32/PX-RICS) (from UniProt Q811P8-1 1-2089), Slit-Robo Rho GTPase-activating protein 2 (SRGAP2) (from UniProt Q91Z67 1-1071), Slit-Robo Rho GTPase-activating protein 3 (SRGAP3) (from UniProt Q812A2 1-1099), rho guanine nucleotide exchange factor 12 (ARHGEF12) (from UniProt Q8R4H2 1-1543), serine/threonine protein kinase MRCKα (from UniProt Q3UU96 1-1719) (enzyme)

molecular target: T1, glutamate receptor delta-1 (GluD1), endogenous (mouse (endogenous in P15 mouse brain)); experiment: as above; remark: another data set of the same source

binding, binds:
B1, B2

No constants are given. Whether binding was seen depends on the method and setting. Binding seen in cells or lysates may run through a third protein. These calls come from enrichment with a bait or labelling near it, and not all partners need be listed.
